The source of these data is article PMC7367195.

Amino acid sequences for entries named in this document (tags omitted).
UniProt Q9EQQ0: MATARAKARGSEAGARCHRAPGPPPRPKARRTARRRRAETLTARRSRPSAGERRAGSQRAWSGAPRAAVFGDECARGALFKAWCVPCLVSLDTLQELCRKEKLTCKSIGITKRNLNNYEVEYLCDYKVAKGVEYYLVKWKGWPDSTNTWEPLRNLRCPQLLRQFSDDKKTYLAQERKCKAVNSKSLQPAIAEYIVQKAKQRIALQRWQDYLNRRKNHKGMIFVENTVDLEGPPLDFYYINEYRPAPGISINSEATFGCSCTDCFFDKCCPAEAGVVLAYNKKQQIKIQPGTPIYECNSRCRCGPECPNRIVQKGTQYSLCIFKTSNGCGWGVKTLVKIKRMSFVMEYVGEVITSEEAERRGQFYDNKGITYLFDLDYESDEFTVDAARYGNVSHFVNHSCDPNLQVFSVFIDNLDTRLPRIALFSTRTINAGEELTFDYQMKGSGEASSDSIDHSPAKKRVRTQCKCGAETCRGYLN
UniProt Q8R418: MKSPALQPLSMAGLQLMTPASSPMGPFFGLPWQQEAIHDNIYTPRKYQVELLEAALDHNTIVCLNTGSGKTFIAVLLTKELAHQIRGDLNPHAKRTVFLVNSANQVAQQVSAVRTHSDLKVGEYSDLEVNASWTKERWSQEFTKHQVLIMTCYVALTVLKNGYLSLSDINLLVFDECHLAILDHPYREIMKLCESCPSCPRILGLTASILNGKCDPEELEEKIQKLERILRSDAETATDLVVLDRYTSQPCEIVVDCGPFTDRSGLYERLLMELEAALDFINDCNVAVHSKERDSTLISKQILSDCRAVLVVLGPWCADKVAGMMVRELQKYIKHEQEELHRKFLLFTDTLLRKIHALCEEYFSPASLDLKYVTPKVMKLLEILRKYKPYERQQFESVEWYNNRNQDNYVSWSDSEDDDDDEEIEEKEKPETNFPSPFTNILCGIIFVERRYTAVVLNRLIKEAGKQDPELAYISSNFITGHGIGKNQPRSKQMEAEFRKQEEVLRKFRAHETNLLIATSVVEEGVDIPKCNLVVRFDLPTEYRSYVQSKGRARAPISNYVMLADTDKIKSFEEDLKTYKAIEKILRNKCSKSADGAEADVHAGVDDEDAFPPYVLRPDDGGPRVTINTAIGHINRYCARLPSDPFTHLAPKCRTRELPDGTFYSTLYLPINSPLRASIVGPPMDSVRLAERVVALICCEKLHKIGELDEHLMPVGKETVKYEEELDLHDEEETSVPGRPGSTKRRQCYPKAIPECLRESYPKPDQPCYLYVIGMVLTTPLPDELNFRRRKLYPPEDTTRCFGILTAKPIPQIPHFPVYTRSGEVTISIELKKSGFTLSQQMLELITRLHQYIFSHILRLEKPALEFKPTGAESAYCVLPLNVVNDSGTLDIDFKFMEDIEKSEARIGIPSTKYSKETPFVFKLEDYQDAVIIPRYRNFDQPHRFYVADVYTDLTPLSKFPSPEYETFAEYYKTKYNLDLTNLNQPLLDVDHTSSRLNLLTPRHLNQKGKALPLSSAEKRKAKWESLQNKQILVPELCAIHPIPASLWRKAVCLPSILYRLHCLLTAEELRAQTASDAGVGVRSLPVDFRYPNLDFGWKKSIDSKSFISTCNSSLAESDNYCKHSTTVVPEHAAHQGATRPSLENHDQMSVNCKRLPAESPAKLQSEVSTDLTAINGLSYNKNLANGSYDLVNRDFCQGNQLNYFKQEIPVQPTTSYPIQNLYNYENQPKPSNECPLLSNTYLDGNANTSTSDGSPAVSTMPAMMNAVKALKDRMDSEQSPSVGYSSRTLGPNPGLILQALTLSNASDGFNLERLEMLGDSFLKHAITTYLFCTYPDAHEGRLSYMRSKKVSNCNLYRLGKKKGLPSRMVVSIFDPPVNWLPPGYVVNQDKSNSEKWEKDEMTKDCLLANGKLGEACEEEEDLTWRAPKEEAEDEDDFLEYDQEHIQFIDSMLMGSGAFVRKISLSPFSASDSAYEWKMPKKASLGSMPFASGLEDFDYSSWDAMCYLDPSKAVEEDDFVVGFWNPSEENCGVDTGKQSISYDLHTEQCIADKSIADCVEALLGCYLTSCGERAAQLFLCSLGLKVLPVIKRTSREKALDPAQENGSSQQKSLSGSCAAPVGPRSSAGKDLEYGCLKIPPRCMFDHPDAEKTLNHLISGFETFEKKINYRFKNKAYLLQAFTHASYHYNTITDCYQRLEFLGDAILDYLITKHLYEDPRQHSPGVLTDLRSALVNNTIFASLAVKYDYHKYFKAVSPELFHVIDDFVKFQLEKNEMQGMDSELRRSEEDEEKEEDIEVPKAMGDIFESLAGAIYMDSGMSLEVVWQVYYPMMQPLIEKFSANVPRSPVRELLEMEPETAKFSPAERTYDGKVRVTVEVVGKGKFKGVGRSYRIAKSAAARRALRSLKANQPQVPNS

These are yes or no findings as the source states them, for the method shown. Binding seen in cells or lysates may run through a third protein. Some entries that bind do so weakly or less than the wild type.

For test [1], the target named is SUV39H2 (Suppressor of variegation 3–9 homolog 2) (mouse (endogenous in testis)) (UniProt Q9EQQ0). Nature of the test: co-IP; 18 dpp mouse testis lysate (50 mM Tris–HCl pH 7.5, 150 mM NaCl, 1.5 mM MgCl2, 1% Triton X-100, 0.1% NP-40); 2–3 μg antibody overnight at +4°C, Dynabeads Protein G; western blotting; rabbit IgG as control. (In general: Immunoblotting shows a protein as a band on a membrane.)

Test [2] has as its target DICER (mouse (endogenous in testis)) (UniProt Q8R418). The description is as above.

Regarding “DICER (from UniProt Q8R418 1-1916) (enzyme)”, the binding result in test [1] is “binds”.

B1: TRIM33 (Tripartite motif-containing 33) (protein, UniProt Q99PP7 1-1142)
chain: MAENKGGGEAESGGGGSGSAPVTAGAAGPTAQEAEPPLAAVLVEEEEEEGGRAGAEGGAAGPDDGGVAAASSSSAPAASVPAASVGSAVPGGAASTPAPAAAPAPAPAPAPAPAPAPAPAPAPGSSSGPPLGPPASLLDTCAVCQQSLQSRREAEPKLLPCLHSFCLRCLPEPERQLSVPIPGGSNGDVQQVGVIRCPVCRQECRQIDLVDNYFVKDTSEAPSSSDEKSEQVCTSCEDNASAVGFCVECGEWLCKTCIEAHQRVKFTKDHLIRKKEDVSESVGTSGQRPVFCPVHKQEQLKLFCETCDRLTCRDCQLLEHKEHRYQFLEEAFQNQKGAIENLLAKLLEKKNYVHFAATQVQNRIKEVNETNKRVEQEIKVAIFTLINEINKKGKSLLQQLENVTKERQMKLLQQQNDITGLSRQVKHVMNFTNWAIASGSSTALLYSKRLITFQLRHILKARCDPVPAANGAIRFHCDPTFWAKNVVNLGNLVIESKPAPGYTPNVVVGQVPPGTNHISKTPGQINLAQLRLQHMQQQVYAQKHQQLQQMRLQQPPAPIPTTTATTQQHPRQAAPQMLQQQPPRLISVQTMQRGNMNCGAFQAHQMRLAQNAARIPGIPRHSAPQYSMMQPHLQRQHSNPGHAGPFPVVSAHNPINPTSPTTATMANANRGPTSPSVTAIELIPSVTNPENLPSLPDIPPIQLEDAGSSSLDNLLSRYISGSHLPPQPTSTMNPSPGPSALSPGSSGLSNSHTPVRPPSTSSTGSRGSCGSSGRTAEKSAHSFKSDQVKVKQEPGTEEEICSFSGAVKQEKTEDGRRSACMLSSPESSLTPPLSTNLHLESELDTLTGLENHVKTEPTDISESCKQSGLSNLVNGKSPIRNLMHRSARIGGDGNSKDDDPNEDWCAVCQNGGDLLCCEKCPKVFHLTCHVPTLLSFPSGDWICTFCRDIGKPEVEYDCDNMQHSKKGKTAQGLSPVDQRKCERLLLYLYCHELSIEFQEPVPVSIPNYYKIIKKPMDLSTVKKKLQKKHSQHYQIPDDFVADVRLIFKNCERFNEMMKVVQVYADTQEINLKGDSEVAKAGKAVALYFEDKLSEIYSDRTFTPLPEFEQDEDDGEVTEDSDEDFIQPRRKRLKSDERPVHIK
In the case of B1, the binding entry in test [2] is reported as “binds”.
